Measurements from the supplement of paper PMC10849652.
The list shows a part of the results.

Sequences of proteins named here, by UniProt entry; tags and fusion partners are left off. A change or cut given only in a name is not applied to a line headed by its entry.
UniProt P30049: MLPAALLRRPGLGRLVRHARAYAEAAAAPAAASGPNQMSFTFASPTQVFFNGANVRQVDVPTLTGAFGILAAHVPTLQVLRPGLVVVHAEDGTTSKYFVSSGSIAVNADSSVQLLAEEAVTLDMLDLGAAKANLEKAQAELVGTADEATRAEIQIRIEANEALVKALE
UniProt Q9NT62, whole entry, looked up: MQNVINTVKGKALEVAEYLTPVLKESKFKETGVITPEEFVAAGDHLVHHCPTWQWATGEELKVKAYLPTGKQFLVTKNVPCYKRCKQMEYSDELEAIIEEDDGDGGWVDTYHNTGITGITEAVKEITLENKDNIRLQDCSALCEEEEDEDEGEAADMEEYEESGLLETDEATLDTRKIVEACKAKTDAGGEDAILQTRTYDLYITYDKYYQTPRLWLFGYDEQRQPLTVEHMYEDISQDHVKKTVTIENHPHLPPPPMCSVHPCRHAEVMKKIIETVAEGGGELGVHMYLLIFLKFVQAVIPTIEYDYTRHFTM
UniProt P06576, whole entry, looked up: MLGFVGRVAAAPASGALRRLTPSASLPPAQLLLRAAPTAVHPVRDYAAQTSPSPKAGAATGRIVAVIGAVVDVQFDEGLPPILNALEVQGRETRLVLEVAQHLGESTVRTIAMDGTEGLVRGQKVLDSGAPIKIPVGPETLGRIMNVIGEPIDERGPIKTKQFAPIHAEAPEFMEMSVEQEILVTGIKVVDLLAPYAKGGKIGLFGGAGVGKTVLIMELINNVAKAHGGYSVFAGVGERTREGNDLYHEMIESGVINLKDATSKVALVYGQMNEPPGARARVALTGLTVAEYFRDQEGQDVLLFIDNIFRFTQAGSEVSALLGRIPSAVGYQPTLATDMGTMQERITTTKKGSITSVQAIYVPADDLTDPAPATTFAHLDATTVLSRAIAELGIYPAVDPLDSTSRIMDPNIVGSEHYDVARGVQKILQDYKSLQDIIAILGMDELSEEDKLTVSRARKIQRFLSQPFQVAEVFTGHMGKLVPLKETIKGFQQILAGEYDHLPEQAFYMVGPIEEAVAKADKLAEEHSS
UniProt O95376: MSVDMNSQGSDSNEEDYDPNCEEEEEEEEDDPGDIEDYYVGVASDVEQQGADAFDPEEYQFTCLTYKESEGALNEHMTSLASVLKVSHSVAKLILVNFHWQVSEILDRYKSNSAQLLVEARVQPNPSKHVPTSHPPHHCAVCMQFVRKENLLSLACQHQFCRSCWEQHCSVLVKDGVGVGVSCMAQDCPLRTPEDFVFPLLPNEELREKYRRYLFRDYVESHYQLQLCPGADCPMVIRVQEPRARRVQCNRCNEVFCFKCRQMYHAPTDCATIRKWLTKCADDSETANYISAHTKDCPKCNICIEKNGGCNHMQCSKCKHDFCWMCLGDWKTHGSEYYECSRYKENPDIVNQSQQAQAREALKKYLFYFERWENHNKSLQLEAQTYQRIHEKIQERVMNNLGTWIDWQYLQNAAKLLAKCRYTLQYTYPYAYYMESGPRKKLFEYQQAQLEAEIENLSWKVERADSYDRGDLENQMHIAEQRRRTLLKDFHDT
UniProt Q04656: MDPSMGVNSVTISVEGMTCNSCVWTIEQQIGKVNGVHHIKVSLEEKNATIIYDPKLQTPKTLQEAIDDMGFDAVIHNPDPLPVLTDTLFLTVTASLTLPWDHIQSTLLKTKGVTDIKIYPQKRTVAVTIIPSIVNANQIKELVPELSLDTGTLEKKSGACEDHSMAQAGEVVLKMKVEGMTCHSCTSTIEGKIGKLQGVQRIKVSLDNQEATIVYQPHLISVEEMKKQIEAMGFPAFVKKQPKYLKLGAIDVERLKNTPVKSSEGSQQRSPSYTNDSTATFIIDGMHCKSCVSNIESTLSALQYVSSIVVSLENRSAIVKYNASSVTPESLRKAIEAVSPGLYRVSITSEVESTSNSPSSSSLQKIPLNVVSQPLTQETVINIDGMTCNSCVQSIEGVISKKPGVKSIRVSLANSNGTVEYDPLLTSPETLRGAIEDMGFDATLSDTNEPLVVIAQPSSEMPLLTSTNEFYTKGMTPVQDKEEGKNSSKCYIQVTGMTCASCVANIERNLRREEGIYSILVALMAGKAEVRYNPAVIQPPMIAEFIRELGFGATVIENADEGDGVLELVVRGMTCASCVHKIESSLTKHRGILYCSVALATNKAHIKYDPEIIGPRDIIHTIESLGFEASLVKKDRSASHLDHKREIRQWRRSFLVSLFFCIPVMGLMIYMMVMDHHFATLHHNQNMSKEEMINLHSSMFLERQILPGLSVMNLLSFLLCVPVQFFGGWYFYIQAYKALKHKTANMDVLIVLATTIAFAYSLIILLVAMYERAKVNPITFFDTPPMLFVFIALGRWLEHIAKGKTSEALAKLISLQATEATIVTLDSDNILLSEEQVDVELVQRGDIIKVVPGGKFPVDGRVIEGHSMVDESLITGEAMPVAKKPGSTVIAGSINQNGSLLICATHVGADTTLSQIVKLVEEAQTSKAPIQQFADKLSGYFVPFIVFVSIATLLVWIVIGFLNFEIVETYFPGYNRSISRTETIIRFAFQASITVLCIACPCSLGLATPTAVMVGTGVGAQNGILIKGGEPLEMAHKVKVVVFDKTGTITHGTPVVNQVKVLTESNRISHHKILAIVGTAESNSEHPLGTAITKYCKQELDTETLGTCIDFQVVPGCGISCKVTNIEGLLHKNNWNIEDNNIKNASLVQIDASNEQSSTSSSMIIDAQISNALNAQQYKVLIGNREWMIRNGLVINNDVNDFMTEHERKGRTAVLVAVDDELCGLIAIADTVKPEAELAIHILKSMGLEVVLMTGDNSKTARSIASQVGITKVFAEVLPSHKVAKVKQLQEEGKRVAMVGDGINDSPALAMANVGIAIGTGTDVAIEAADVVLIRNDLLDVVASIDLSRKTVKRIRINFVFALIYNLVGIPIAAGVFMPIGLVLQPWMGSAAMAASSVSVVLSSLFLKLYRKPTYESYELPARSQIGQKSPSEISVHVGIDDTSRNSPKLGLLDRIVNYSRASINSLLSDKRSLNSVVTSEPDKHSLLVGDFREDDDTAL
UniProt P16615: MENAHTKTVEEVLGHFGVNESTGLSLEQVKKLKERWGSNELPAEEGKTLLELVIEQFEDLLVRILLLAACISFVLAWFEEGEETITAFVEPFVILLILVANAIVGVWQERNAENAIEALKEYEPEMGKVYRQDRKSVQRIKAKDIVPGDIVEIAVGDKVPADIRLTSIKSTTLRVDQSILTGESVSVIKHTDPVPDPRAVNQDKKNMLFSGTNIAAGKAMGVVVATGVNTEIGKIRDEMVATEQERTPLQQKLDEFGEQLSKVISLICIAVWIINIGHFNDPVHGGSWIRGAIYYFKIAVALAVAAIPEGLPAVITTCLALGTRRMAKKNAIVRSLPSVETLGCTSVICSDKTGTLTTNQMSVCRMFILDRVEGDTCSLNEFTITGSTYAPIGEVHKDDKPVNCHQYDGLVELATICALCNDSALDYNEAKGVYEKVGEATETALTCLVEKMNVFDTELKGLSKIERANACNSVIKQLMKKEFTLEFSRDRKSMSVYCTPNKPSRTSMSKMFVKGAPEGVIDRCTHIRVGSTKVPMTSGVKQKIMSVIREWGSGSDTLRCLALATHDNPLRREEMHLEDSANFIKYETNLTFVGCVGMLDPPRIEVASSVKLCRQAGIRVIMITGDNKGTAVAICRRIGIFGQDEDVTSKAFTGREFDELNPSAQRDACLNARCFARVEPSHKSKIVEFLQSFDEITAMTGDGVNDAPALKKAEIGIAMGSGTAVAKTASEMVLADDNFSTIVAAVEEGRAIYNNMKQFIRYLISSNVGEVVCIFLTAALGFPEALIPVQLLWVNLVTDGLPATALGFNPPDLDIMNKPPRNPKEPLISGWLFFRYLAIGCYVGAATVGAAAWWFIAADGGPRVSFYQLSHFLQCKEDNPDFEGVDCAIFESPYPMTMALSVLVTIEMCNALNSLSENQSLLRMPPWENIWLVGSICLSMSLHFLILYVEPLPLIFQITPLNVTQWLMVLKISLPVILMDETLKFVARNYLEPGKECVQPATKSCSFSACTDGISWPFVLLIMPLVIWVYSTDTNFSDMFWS
UniProt P54259: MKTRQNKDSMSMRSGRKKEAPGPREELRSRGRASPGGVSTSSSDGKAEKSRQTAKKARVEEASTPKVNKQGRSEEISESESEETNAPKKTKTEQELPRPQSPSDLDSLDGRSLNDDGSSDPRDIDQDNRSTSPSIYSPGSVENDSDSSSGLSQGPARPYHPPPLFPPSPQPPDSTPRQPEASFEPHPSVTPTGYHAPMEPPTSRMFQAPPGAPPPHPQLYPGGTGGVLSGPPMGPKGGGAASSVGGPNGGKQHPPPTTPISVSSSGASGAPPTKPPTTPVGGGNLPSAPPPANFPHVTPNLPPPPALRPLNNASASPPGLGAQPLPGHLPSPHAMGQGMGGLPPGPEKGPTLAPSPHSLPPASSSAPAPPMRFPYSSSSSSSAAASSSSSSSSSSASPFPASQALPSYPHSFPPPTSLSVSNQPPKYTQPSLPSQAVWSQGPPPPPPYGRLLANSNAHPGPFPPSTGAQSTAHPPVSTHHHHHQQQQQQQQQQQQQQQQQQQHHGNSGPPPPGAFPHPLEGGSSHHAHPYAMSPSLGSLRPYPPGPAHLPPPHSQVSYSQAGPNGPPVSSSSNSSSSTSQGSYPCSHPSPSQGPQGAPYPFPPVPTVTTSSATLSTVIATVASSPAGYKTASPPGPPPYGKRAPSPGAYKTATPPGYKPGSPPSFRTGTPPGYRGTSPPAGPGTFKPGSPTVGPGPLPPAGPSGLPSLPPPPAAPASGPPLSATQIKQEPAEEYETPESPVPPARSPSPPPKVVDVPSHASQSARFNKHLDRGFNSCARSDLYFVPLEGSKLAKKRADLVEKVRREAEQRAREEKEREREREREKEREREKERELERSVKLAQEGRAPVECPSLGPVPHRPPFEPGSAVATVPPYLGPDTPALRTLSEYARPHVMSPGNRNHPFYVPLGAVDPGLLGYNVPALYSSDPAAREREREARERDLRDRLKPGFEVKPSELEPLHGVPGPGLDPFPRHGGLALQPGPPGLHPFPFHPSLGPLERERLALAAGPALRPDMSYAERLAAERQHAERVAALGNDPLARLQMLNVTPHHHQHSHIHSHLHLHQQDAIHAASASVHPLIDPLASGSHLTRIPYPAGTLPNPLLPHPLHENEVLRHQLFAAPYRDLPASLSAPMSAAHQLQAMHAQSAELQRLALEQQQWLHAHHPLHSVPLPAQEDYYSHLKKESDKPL
UniProt P04424, whole entry, looked up: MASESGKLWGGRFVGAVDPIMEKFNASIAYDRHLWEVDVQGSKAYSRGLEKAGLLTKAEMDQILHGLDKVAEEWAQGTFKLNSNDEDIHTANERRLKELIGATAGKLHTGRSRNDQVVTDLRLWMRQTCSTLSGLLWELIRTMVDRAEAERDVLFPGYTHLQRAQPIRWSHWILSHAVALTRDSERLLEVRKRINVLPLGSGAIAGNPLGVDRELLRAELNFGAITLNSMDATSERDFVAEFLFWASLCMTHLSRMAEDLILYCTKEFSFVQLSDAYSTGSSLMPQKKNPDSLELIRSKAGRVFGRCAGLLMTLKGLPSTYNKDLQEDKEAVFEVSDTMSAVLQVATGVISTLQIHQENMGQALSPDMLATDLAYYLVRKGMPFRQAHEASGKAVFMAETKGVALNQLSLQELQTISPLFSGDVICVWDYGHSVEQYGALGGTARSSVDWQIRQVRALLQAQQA

Compound: c1cn2cc(-c3ccc4cn[nH]c4c3)nc(Nc3ccc(N4CCOCC4)cc3)c2n1 [entospletinib]
Assay: log2 fold change, soluble protein after heating vs DMSO (PISA); higher = thermal stabilisation; K562 cells, 10 uM, 30 min; active = over 0.2 and 3.5 SD of the protein, either way, in both replicates (recomputed)
Summary of the method: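 K562 cells at 2×10^6 cells/mL were treated with 10 μM compound for 30 min. Aliquots were heated for 3 min across 48°C-58°C, pooled, and extracted in PBS with 0.5% NP-40 at 4°C; soluble protein was the supernatant after 21,000xg for 90 min. Soluble protein was quantified by TMTpro 16plex LC-MS/MS with channel sums equalised, and reported as log2 fold change in thermal stability against DMSO controls, with values from duplicates.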

log2 fold change, inactive:
ATP5F1D (UniProt P30049) -0.031, ATG3 (UniProt Q9NT62) 0, ATP5F1B (UniProt P06576) 0.028, ARIH2 (UniProt O95376) -0.018, ATP7A isoform 3 (UniProt Q04656) -0.039, ATP2A2 (UniProt P16615) -0.027, ATN1 (UniProt P54259) -0.015, ASL (UniProt P04424) 0.023
